Article PMC7475178, “Dynamic regulation of anthocyanin biosynthesis at different light intensities by the BT2-TCP46-MYB1 module in apple”

Test system: MdMYB1-HIS + MdTCP46-HIS
Test: EMSA
Settings: MdTCP46-HIS added, binding stronger than MdMYB1 alone; Proteins and biotin probes mixed in binding buffer for 25 min, acrylamide gel; pH and temperature not stated; recombinant protein; protein details: His (pET32a),His (pET32a); label: biotin

Does “ACCTTCCCGTCAGTTATTGCAGGTGG (double strand) [MdUF3GT-Probe]” bind?
Result: binds

Does “CGTGCGTCAACCGTTAGGAAAGCACG (double strand) [MdDFR-Probe]” bind?
Result: binds

Construct, isoform or probe ends are uncertain for at least one entry.
